Assay results published in patent EP2310009B1, “PARENTERAL AND ORAL FORMULATIONS OF BENZIMIDAZOLES” (UNIVERSITY OF HOUSTON, priority 2008, dated 2010).

Experiment: Homogeneity of 14C-Mbz distribution in rat organs
Settings: for Mean (CPM/0.2g): three sites

COC(=O)Nc1nc2cc(C(=O)c3ccccc3)ccc2[nH]1 [Formulation 14C-Mbz]
Site Variations (%) (n=3) (rat Brain): 7.96%
Mean (CPM/0.2g) (rat Brain): 358.27 CPM/0.2g
Site Variations (%) (n=3) (rat Heart): 14.02%
Mean (CPM/0.2g) (rat Heart): 1300.72 CPM/0.2g
Site Variations (%) (n=3) (rat Kidneys): 3.01%
Mean (CPM/0.2g) (rat Kidneys): 1192.13 CPM/0.2g
Site Variations (%) (n=3) (rat Liver): 3.44%
Mean (CPM/0.2g) (rat Liver): 41978.90 CPM/0.2g
Site Variations (%) (n=3) (rat Lung): 5.67%
Mean (CPM/0.2g) (rat Lung): 22429.33 CPM/0.2g
Site Variations (%) (n=3) (rat Spleen): 5.15%
Mean (CPM/0.2g) (rat Spleen): 31279.43 CPM/0.2g
